Read-outs that look alike come from different tables or passages of the source. These are yes or no findings as the source states them, for the method shown. Binding seen in cells or lysates may run through a third protein. Some entries that bind do so weakly or less than the wild type. For part of these data: Where a sequence is shown, tags or fusion partners need not be part of it.
Assays:
[1] = biological target: MIWI (endogenous, mouse testes) (mouse (endogenous in testes)) (UniProt Q9JMB7); assay: co-IP; mouse testis lysates (20 mM HEPES pH 7.3, 150 mM NaCl, 2.5 mM MgCl2, 0.2% NP-40, 1 mM DTT); immunoprecipitation with anti-MIWI antibody and protein-A agarose, 4 h at 4°C; Western blotting of MIWI, TDRKH, TDRD6
[2] = biological target: T1, FLAG-tagged MIWI^RK (mouse), Q9JMB7; assay: co-IP; HEK293T cells co-transfected with FLAG-tagged MIWI or MIWI^RK and GFP-tagged proteins; after 48 h immunoprecipitation with anti-FLAG M2 Affinity Gel; Western blotting with anti-GFP and anti-FLAG; details: remark: other sources report otherwise
T1 chain: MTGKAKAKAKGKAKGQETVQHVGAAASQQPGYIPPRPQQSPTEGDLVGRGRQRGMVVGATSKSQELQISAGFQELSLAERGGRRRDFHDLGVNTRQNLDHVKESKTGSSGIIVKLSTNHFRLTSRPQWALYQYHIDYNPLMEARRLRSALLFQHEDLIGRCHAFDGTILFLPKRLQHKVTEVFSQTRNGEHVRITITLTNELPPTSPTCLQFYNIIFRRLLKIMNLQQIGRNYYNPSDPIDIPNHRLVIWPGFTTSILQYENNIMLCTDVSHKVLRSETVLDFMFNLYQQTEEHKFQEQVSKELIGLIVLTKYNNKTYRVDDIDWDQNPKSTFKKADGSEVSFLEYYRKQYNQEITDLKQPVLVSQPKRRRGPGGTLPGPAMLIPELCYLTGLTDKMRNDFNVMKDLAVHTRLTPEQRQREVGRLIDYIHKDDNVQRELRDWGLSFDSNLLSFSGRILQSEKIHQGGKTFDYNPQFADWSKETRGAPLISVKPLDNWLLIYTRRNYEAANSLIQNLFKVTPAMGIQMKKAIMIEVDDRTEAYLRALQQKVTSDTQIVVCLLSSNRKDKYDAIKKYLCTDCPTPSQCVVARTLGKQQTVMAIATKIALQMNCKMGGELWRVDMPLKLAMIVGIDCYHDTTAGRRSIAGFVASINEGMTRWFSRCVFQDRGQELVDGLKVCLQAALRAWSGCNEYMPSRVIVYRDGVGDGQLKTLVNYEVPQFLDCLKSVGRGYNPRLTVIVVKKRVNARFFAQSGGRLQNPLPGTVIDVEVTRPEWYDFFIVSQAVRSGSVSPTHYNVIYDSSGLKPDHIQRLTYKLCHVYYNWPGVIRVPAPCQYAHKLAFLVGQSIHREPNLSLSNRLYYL

The chains behind the UniProt entries cited, without tags or fusion partners.
UniProt P61407: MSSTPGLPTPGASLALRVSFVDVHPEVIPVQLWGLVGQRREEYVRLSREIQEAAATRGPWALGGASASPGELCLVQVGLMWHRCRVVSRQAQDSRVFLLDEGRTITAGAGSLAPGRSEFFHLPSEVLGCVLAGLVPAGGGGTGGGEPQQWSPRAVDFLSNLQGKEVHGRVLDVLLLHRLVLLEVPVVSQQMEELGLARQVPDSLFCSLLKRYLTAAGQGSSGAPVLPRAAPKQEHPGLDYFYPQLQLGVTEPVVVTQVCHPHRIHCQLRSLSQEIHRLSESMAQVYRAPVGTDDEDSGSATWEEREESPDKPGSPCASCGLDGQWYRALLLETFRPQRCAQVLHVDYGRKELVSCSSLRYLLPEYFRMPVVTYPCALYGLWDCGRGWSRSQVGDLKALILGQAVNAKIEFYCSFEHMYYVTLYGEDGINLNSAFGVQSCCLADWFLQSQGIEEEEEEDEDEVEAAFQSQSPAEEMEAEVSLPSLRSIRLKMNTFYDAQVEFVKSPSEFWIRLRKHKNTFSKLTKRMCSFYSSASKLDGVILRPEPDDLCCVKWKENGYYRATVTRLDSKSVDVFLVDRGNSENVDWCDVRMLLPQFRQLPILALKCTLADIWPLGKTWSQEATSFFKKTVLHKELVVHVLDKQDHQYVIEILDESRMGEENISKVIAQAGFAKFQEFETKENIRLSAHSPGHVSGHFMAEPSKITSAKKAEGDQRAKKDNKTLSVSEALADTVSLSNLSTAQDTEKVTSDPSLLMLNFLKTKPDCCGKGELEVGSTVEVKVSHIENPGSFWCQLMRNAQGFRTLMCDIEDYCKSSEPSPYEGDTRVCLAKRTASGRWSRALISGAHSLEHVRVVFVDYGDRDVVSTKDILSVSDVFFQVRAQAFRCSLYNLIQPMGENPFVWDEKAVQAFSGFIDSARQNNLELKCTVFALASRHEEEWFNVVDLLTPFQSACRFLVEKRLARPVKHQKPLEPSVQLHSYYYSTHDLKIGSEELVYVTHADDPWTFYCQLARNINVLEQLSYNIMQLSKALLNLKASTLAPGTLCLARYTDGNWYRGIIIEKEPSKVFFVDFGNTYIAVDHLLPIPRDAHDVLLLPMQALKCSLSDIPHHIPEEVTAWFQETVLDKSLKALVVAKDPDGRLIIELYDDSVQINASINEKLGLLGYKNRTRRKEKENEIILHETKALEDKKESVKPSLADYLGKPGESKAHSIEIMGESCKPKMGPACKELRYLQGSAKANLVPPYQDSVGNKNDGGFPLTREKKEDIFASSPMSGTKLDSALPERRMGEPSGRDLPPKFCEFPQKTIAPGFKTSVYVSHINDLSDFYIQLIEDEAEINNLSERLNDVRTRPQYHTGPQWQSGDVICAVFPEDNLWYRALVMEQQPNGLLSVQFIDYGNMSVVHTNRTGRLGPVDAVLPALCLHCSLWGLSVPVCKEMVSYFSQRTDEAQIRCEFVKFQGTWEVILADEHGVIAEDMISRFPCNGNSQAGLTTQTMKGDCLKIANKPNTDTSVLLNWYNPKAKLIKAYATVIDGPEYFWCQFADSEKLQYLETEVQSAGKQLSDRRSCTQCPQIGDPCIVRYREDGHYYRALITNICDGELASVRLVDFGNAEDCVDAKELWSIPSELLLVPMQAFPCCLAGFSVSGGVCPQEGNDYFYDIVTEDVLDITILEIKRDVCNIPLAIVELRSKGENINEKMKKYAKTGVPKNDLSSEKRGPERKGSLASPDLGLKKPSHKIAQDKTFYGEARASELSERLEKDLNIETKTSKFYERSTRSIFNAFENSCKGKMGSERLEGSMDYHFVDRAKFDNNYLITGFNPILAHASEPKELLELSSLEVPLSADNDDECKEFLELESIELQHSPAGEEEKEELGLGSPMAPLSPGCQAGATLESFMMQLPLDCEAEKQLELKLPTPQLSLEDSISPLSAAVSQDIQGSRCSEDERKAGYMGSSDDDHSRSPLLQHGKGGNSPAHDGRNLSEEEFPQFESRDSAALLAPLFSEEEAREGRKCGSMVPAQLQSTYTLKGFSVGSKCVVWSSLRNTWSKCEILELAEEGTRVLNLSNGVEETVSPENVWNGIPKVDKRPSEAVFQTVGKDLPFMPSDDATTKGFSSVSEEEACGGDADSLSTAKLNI

[3] = biological target: MIWI (endogenous, mouse testes) (mouse (endogenous in testes)) (UniProt Q9JMB7); assay: co-IP; mouse testis lysates (20 mM HEPES pH 7.3, 150 mM NaCl, 2.5 mM MgCl2, 0.2% NP-40, 1 mM DTT); immunoprecipitation with anti-MIWI antibody and protein-A agarose, 4 h at 4°C; Western blotting of MIWI, TDRKH, TDRD6; remark: listed apart in the source

Molecule: TDRD6 (endogenous, mouse testes) (from UniProt P61407 1-2134)
- binding [1]: binds

B1: GFP-tagged TDRD5, Q5VCS6 1-1040 (protein)
chain: MSEQERIQDCLRKEIRSLLISTKDGLTPQQLEKEYLLMVGNHLPLRILGYRSTMELVLDMPDVVSVCPGGDGTVILKAIPDESTKGIASLVAKQRRSHKVRNSMPKGRPSICSGRVPYRGRVPPILPAVVKSELKDLLALSPVLLSDFEKAFARRFGRSFQYMQYGFLSMFEVLNAASDVISVEQTRAGSLLTLKKSVSEDKQRGWPAGKVFTQPFRMKQQGSYSTGFPVMKAHFSQPISNMEPPKQVLSMAKTPTFNSVEASRLNHTEKLNQLESTFKSVIAQIGPGGTVDPELKRKIQFVVSKFPQGLFISKLLGEFELTFKEQLSPKQLGFLNVTELVGALSDILRVEFSEERQDLLVFDADLKPLPSGGPLSSVRNSCLVQPDKKTEANPWTSSLSRNSLSTVAVKKTTWDCPLKNQKEPEQKIYKKPNLVVKPLQLQVETNKPQLSLSVANHDIPPDAVRAKKLCRLPPLDTSTLVGVFVEYIISPSQFYIRIYSRDSSELLEDMMIEMRRCYSNQLVSDRYIMPEYFIQPGHLCCVKISEDKWWYRVIIHRILGKKEVEVFYPDFGNIGTVQKSSLRFLKCCYTKLPAQAIPCSLAWVRPAEEHWTARAILHFQKLCGLKPLVGVVDEYIDGILNIFLCDTSSNEDVYFHHVLRTEGHAIVCRENAPSKGFRDFNPPALYTNASSAGDMVLTDLGHPAQQHYLNEDQEILQQAQQDINDGKCISYLKSAPKELLKDSKLSSLKTHKSCEEDPRWSILQPKDLKEENEDEVPTGMPCLESVTIGDDVWDENWLPLQAKMGKAGSPASQLFTSNLVGKKQYQTGGEMAQKDWCFSTSKDIWDDSWQPLGLANDVKGGIHTPEGPIAQEKNTSTTRIQQQPDLQYPLDSSTLPKLEEFYISLIKSQQSAERSQSEPASIQTHAGRAASKALSSTPAVGDSPENHSGSVESSPGSLKKEDVSNSRAEATAKDKSQGAIDQLSFILSPQHQISQKLYIPRSTATAVLGAAARLATSRSLLHWYPSVKGGKLEAERDGVK
- binding [2]: binds

B2: TDRKH (endogenous, mouse testes) (protein, UniProt Q80VL1 1-560)
chain: MSTERTSWTNLSTIQKIALGLGIPASATVAYILYRRYRESREERLTFVGEDDIEIEMRVPQEAVKLIIGRQGANIKQLRKQTGARIDVDTEDVGDERVLLISGFPVQVCKAKAAIHQILTENTPVFEQLSVPQRSVGRIIGRGGETIRSICKASGAKITCDKESEGTLLLSRLIKISGTQKEVAAAKHLILEKVSEDEELRKRIAHSAETRVPRKQPISVRREEVTEPGGAGEAALWKNTNSSMGPATPLEVPLRKGGGDMVVVGPKEGSWEKPNDDSFQNSGAQSSPETSMFEIPSPDFSFHADEYLEVYVSASEHPNHFWIQIIGSRSLQLDKLVSEMTQHYENSLPEDLTVHVGDIVAAPLSTNGSWYRARVLGTLENGNLDLYFVDFGDNGDCALKDLRALRSDFLSLPFQAIECSLARIAPTGEEWEEEALDEFDRLTHCADWKPLVAKISSYVQTGISTWPKIYLYDTSDEKKLDIGLELVRKGYAVELPEDMEENRTVPNMLKDMATETDDSLASILTETKKSPEEMPHTLSCLSLSEAASMSGDDNLEDDLF
- binding [3]: binds

Source: PMC10681313
